The values that follow come from US20230348568A1 (US Dept. of Health and Human Services, published 2023).

The chains behind the UniProt entries cited, without tags or fusion partners. Where a name states a change or a piece, a line headed by the entry shows the natural chain unless it says otherwise.
UniProt P03205: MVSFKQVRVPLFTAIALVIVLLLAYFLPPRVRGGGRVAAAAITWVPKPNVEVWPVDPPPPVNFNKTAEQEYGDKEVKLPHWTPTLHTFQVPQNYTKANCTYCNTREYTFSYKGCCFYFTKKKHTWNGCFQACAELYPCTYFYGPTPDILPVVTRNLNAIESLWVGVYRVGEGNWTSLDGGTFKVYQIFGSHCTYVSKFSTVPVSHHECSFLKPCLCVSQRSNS

Experiment [1] deals with Epstein-Barr virus glycoprotein 42 (gp42) (Epstein-Barr virus) (UniProt P03205). Kind of experiment: BLI cross-competition on gH/gL/gp42.
The target is the same in experiment [2]. Kind of experiment: BLI cross-competition on gp42 (type I and type II).

No constants are given. Whether binding was seen depends on the method and setting. Some entries that bind do so weakly or less than the wild type.

B1: A10 monoclonal antibody (cynomolgus monkey variable regions on human IgG1 constant region) (antibody, V domains shown)
VH: QVQLQESGPGLVKPSQTLSLTCAISGDSVSSNSATWNWIRQSPSRGLEWLGRTYYRSKWYYDYAQSVQNRISINPDTSKNQFSLQLNSVTPEDMAVYYCARGDFDAFDFWGQGLRVTVSS
VL: SYELTQPPSVSAASGQTARITCGGDNIGSKNVQWYQQKPAQAPVLVIYADSKRPSGVPERFSGSNSGNTATLTISGVEAGDEADYYCQVWDRSSNIFGVGTRLTVLG
In the case of B1, the binding entry in experiment [1] and in experiment [2] was “binds” throughout.
